By UniProt entry, the sequences of proteins in these tests, tags left out.
UniProt P13164: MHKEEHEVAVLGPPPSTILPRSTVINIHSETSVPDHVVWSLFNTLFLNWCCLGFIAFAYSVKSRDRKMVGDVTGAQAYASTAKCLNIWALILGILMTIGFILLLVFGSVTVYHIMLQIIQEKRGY
UniProt Q07955: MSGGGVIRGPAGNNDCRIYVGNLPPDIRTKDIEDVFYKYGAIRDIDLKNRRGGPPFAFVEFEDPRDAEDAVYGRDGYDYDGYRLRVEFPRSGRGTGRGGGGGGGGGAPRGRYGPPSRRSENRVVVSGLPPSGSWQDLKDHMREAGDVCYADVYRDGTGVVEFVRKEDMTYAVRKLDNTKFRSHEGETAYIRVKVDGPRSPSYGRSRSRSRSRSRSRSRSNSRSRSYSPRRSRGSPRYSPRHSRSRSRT

In paper doi:10.1101/2022.02.02.478792:

B1: SRSF2 (protein, UniProt Q01130 1-221)
chain: MSYGRPPPDVEGMTSLKVDNLTYRTSPDTLRRVFEKYGRVGDVYIPRDRYTKESRGFAFVRFHDKRDAEDAMDAMDGAVLDGRELRVQMARYGRPPDSHHSRRGPPPRRYGGGGYGRRSRSPRRRRRSRSRSRSRSRSRSRSRYSRSKSRSRTRSRSRSTSKSRSARRSKSKSSSVSRSRSRSRSRSRSRSPPPVSKRESKSRSRSKSPPKSPEEEGAVSS
B2: SRSF3 (protein, UniProt P84103 1-164)
chain: MHRDSCPLDCKVYVGNLGNNGNKTELERAFGYYGPLRSVWVARNPPGFAFVEFEDPRDAADAVRELDGRTLCGCRVRVELSNGEKRSRNRGPPPSWGRRPRDDYRRRSPPPRRRSPRRRSFSRSRSRSLSRDRRRERSLSRERNHKPSRSFSRSRSRSRSNERK
B3: SRSF6 (protein, UniProt Q13247 1-344)
chain: MPRVYIGRLSYNVREKDIQRFFSGYGRLLEVDLKNGYGFVEFEDSRDADDAVYELNGKELCGERVIVEHARGPRRDRDGYSYGSRSGGGGYSSRRTSGRDKYGPPVRTEYRLIVENLSSRCSWQDLKDFMRQAGEVTYADAHKERTNEGVIEFRSYSDMKRALDKLDGTEINGRNIRLIEDKPRTSHRRSYSGSRSRSRSRRRSRSRSRRSSRSRSRSISKSRSRSRSRSKGRSRSRSKGRKSRSKSKSKPKSDRGSHSHSRSRSKDEYEKSRSRSRSRSPKENGKGDIKSKSRSRSQSRSNSPLPVPPSKARSVSPPPKRATSRSRSRSRSKSRSRSRSSSRD
B4: U2AF1 (protein, UniProt Q01081 1-240)
chain: MAEYLASIFGTEKDKVNCSFYFKIGACRHGDRCSRLHNKPTFSQTIALLNIYRNPQNSSQSADGLRCAVSDVEMQEHYDEFFEEVFTEMEEKYGEVEEMNVCDNLGDHLVGNVYVKFRREEDAEKAVIDLNNRWFNGQPIHAELSPVTDFREACCRQYEMGECTRGGFCNFMHLKPISRELRRELYGRRRKKHRSRSRSRERRSRSRDRGRGGGGGGGGGGGGRERDRRRSRDRERSGRF

Target: SBP-tagged IFITM1 protein (human) (UniProt P13164)
Test: affinity purification with mass spectrometry

Row | Molecule | binding
1 | serine and arginine-rich splicing factor 1 (SRSF1) (from UniProt Q07955 1-248) | binds
2 | B1 | binds
3 | B2 | binds
4 | B3 | binds
5 | B4 | binds

These are yes or no findings as the source states them, for the method shown. Binding seen in cells or lysates may run through a third protein. Here binding means that the protein was enriched with, or labelled near, the bait; the list need not be complete.
